No constants are given. Whether binding was seen depends on the method and setting. Some entries that bind do so weakly or less than the wild type.
Legend:
S100A9 [1] = target: T1, S100A9 (UniProt P06702); assay: co-IP; TGFβ1 (1.6 μM) incubated equimolar with S100A8 or S100A9 and equimolar CaCl2 at 37°C overnight; precipitated with anti-S100A8 or anti-S100A9 on protein G-Sepharose; washed in 10 mM Tris HCl, 40 mM NaCl, pH 7.5; blot for TGFβ1; both purified
T1 sequence: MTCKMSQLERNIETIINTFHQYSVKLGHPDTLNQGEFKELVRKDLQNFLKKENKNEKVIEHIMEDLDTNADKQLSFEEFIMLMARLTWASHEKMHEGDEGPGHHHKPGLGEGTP

Chains of the proteins cited; added tags and fusions are not shown. Residues count along the entry.
UniProt P01137, residues 279-390: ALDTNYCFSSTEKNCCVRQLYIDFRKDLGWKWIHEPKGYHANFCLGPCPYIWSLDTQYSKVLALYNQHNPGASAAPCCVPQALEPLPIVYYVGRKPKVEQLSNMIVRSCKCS

S100A8 [2] = target: T2, S100A8 (UniProt P05109); assay: as above
T2 sequence: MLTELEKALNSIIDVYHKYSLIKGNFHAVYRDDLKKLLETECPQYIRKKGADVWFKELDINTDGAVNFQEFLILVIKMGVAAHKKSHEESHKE

S100A9 [3] = target: T1, S100A9; assay: MALDI-TOF/MS of mixtures (linear positive ion mode); proteins and CaCl2 mixed at equimolar concentration (11.3 μM) in aqueous solution, incubated overnight at 37°C, diluted 1/10 in 0.1% TFA, sinapinic acid matrix; both purified
S100A8 [4] = target: T2, S100A8; assay: as above

- binding (S100A9 [1]): binds
- binding (S100A8 [2]): binds
- binding (S100A9 [3]): binds
- binding (S100A8 [4]): binds
Substance: transforming growth factor beta 1 (from UniProt P01137 279-390) (ligand)

Source: paper PMC4108065, “Inflammation and pancreatic cancer: molecular and functional interactions between S100A8, S100A9, NT-S100A8 and TGFβ1” (Cell Communication and Signaling : CCS, 2014)
